Results as given in US20110229491A1 (published 2011).

Biological target: T1, Minichromosome maintenance family protein 5 (MCM5), At2g07690, from Arabidopsis cell suspension culture (Arabidopsis) (UniProt O80786)
T1 sequence (looked up): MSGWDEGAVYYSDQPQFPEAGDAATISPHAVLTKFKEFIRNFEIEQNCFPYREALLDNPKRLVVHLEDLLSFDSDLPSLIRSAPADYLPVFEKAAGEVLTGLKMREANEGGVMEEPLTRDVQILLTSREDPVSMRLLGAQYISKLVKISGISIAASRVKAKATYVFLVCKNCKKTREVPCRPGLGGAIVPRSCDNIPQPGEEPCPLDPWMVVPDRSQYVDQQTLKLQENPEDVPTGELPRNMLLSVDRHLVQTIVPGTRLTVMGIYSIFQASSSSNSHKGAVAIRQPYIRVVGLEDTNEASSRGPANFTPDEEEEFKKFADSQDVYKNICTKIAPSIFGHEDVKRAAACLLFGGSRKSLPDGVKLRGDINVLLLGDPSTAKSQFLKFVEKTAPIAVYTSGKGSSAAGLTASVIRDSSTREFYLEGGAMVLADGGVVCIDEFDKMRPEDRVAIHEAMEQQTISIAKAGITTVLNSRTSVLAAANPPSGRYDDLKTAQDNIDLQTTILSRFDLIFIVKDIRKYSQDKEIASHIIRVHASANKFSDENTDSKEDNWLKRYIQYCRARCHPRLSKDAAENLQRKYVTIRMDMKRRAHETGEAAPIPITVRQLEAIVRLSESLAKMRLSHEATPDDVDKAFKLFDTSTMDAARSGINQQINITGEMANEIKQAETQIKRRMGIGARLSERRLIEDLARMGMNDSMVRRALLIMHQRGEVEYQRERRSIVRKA
Assay: listed among ETG1-copurified proteins (TAP, mass spectrometry); detected in the two independent TAP experiments

binding: binds
B1: TAP-ETG1 (TAP-tagged ETG1 bait, Pro35S:TAP-ETG1) (protein, Arabidopsis, UniProt Q501D5 1-589, looked up)
chain: MGGPAYDCLTNPLGAVRFSFVNALSSGYDPASSVGKDWGVVDLFRHYFSDESAISQVPILDSSSIKWVQPKTLVRFRGMIQDMLGNEFYAGAYKDDSTWRTNKYSDVSQFPEGSSTEIQVWERRLLYCVPVPGKNQWTECSSQELKNRFLDLTGQNREKRVRVDEEMTDSMDSSTLEAGRNGSPFKKMKVGEATSSASESQVPQTSGIPPATSADSLPCLVKIYDSPESDLKLNDVVEFLGVLTFDPIVMMDTDTLDENSDALSEAESVQMPSGKVPRLHCLIHRKLETQHFLHGSSLLPEPKSPQIFKEIRESLMKYLTGLLGNDHIAAQFLLLHLLSKVHGRVDNVAVGKLSLNLIHLNKESMSIFGTQLSGALKSLLPFTQSIPLTIEYLNTASFGPKKDYGINRLMPGVLQIADGTHLILDETELQPGTLNSVGVENANLLKNLLECQKVEYDFQYYKMEMATDVQMLIFSEGKSNIMPADLVLPLQPSQVNSLEVITPETAETWRCYLATCKSLSHSIGQELQQVVENDLVAARQTDRSLGSQDLSRLLTMARMMSVSYGETTLSLEHWQMVLELERLRKERLK

These are yes or no findings as the source states them, for the method shown. Binding seen in cells or lysates may run through a third protein. A yes stands for co-enrichment or nearness to the bait. Other partners may have been found. Where a sequence is shown, tags or fusion partners need not be part of it.
